Consider 2 molecules from patent US20190284272A1 (published 2019).

Results are given in words; binding and its absence hold for the method and conditions named. Some binding calls cover weakened binding; strength is not graded here.

The target of this test is T1, equine IL-31 protein (Equine_IL31) (equine).
T1 sequence: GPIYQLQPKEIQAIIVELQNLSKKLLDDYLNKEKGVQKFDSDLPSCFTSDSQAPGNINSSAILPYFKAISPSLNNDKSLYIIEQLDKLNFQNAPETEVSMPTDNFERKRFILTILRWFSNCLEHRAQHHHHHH
Kind of test: Biacore, IL-31 surface, single antibody concentration (FIG. 4).

B1: ZIL1 (antibody, V domains shown)
VH: EVQLVESGGDLVKPGGSLRLSCVASGFTFSSYGMSWVRQAPGKGLQWVAHINSGGSSTYYADAVKGRFTISRDNAKNTLYLQMNSLRAEDTAVYYCVEVYTTLAAFWTDNFDYWGQGTLVTVSS
VL: QSVLTQPTSVSGSLGQRVTISCSGSTNNIGILAATWYQQLPGKAPKVLVYSDGNRPSGVPDRFSGSKSGNSATLTITGLQAEDEADYYCQSFDTTLDAYVFGSGTQLTVLR
Regarding B1, the binding entry was “binds”.

B2: ZIL9 (antibody, V domains shown)
VH: EVQLVESGGDLVKPPGSLRLSCVASGFTFSSYDMTWVRQAPGKGLQWVADVNSGGTGTAYAVAVKGRFTISRDNAKKTLYLQMNSLRAEDTAVYYCAKLGVRDGLSVWGQGTLVTVSS
VL: SSVLTQPPSVSVSLGQTATISCSGESLNEYYTQWFQQKAGQAPVLVIYRDTERPSGIPDRFSGSSSGNTHTLTISGARAEDEADYYCESAVDTGTLVFGGGTHLAVLR
Regarding B2, the binding entry is on record as “binds”.
